# Source: PubChem BioAssay AID540275 (National Center for Advancing Translational Sciences (NCATS), 2011)
# By UniProt entry, the sequences of proteins in these tests, tags left out.
# UniProt Q8NER1, whole entry, looked up: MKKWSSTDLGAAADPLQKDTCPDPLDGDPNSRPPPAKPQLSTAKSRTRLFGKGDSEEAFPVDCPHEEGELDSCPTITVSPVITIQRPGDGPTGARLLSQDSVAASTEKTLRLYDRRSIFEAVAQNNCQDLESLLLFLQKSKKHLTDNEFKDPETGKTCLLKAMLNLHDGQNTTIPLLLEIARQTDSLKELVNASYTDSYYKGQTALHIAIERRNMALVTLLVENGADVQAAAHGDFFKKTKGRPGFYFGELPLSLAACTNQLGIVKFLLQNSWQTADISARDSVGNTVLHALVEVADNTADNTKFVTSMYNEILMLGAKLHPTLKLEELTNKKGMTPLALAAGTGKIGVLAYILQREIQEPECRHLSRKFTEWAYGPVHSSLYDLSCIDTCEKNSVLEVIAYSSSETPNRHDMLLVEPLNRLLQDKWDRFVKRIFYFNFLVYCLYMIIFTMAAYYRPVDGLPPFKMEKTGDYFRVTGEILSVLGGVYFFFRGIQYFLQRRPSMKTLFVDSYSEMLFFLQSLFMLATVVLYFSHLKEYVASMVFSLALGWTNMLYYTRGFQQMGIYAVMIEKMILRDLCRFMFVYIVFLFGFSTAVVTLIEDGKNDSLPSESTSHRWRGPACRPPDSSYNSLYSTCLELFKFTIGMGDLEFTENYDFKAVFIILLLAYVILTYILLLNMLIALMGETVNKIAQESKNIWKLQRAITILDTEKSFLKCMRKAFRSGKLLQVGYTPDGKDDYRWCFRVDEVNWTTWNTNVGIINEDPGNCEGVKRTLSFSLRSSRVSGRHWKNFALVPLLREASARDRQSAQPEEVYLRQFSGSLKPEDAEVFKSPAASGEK
# The whole screen tested about 320,000 compounds, of which about 620 (0.19%) were called active. Inconclusive means that the source gave no clear call. Such entries were picked first, then a sample of the others. Rule as the data show it: active = activation above about 80%; inconclusive = between about 30% and that limit; inactive = weaker than that.
# Molecular target: Transient receptor potential cation channel subfamily V member 1 (Homo sapiens) (UniProt Q8NER1)
# Assay: HTS Assay for Compounds that Act as Agonists of the Vanilloid Receptor 1; also: 0% is about no effect
# Settings: TRPV1-expressing cells, Fluo-8 calcium influx, agonist mode; at 8.33 µM, hits give high values
# In short: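 Fluo-8 calcium influx in TRPV1-expressing cells, kinetic read (ex 480/em 520 nm). Compound added and read 3 min for agonist activity, followed by capsaicin at EC20 final and 2 min further read for enhancement.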
row,Structure (SMILES),activation
1,COc1cccc(NC(=O)N(CCCN2CCOCC2)C(C)c2cc3ccccc3o2)c1 (centres undefined),inconclusive: 34.2%
2,O=C(CCCOc1ccccc1)N1CCN(S(=O)(=O)c2ccccc2)CC1,inconclusive: 30.4%
3,COc1ccccc1C(c1nnnn1CCc1ccccc1)N1CCCCCC1 (centres undefined),inconclusive: 42.8%
4,Cc1ccc(S(=O)(=O)CC(=O)Nc2ccccn2)cc1,inactive: -2.22%
5,CC(=O)c1ccc(NC(=O)N2CCN(c3ccc(C)cc3)C(C)C2)cc1 (centres undefined),active: 84.3%
6,CCn1c(=O)c([N+](=O)[O-])c(Cl)c2ccccc21,inactive: 0.665%
7,CC12CCC(O)CC1=CCC1C2CCC2(C)C1CCC21CCC(=O)O1 (centres undefined),inconclusive: 38.7%
8,CC(Sc1ccccc1)C(=O)N1CCN(S(=O)(=O)c2ccc(Cl)cc2)CC1 (centres undefined),inconclusive: 44.7%
9,O=C(N/N=C/c1ccc(O)cc1)c1cc(C23CC4CC(CC(C4)C2)C3)[nH]n1,inconclusive: 43.4%
10,Cc1cc(=O)[nH]c(N2CCc3ccccc3C2)n1,inconclusive: 73.3%
11,CC(=O)c1c(C)[nH]c(C(=O)Nc2ccc(C)cc2Br)c1C,inconclusive: 41.1%
12,Clc1ccccc1-c1nc2ccccc2c2nc3ccccc3n12,inconclusive: 41.6%
13,COc1ccc(CC(=O)Nc2ccc(S(=O)(=O)N3CCCCC3)cc2)cc1OC,active: 87.9%
14,CC(=O)c1sc(NC(=O)c2ccc(C(C)(C)C)cc2)nc1C,inconclusive: 35.9%
15,CC(=O)/C(=C/c1ccc(N(C)C)cc1)C(=O)c1ccccc1,inconclusive: 30.1%
16,CC(C)c1ccccc1NC(=S)NN(Cc1ccccc1)c1ccccc1,inconclusive: 62.1%
17,COC(=O)c1[nH]c2cc(OC)ccc2c1NC(=O)CCN1CCCCC1,inactive: -0.536%
18,CCOc1ccc2nc(NC(=O)C3=NNC(=O)CC3)sc2c1,inconclusive: 30.6%
19,CC(CCc1ccccc1)NC(=O)Cc1ccccc1 (centres undefined),inconclusive: 52.4%
20,O=C(Nc1ccc(Br)c(C(F)(F)F)c1)c1ccc(C(F)(F)F)cc1,inconclusive: 30.6%
21,CC(C)(C)c1ccc(C(=O)Nc2cccc(-n3cnnn3)c2)cc1,active: 80.2%
22,CC1CCN(Cc2c(O)ccc3c(=O)c(-c4nc5ccccc5s4)c(N)oc23)CC1,inactive: 0.616%
23,CCCNc1c(NS(=O)(=O)c2ccc(Cl)s2)c(=O)oc2ccccc12,inactive: 18.2%

row,Structure (SMILES),activation
1,Cc1ccc(C(=O)OCC(=O)NCc2cccs2)s1,inconclusive: 35.6%
2,CCOCC(=O)Nc1nc(-c2ccccc2)c(CC)s1,inconclusive: 45.7%
3,CCCc1cc(C(=O)Nc2ccc(C(=O)c3ccc(C)cc3)cc2)n(C)n1,inconclusive: 36.1%
4,CC(C)(C)c1ccc(CCC2OCC(CN3CCOCC3)O2)cc1 (centres undefined),inconclusive: 37.6%
5,CCOc1ccc(NC(=S)NN(C)C(=S)Nc2ccc(OCC)cc2)cc1,inactive: -0.086%
6,COc1ccc(N2CCC(CNC(=O)Nc3ccccc3)C2)cc1 (centres undefined),inconclusive: 55.4%
7,COc1cc(C(C)=O)ccc1OCC(=O)Nc1ccccc1N1CCCCC1,inconclusive: 49.2%
8,COc1ccccc1C1=Nn2c(COc3ccccc3)nnc2SC1,inconclusive: 34.4%
9,COc1ccc(NC(=O)CSc2ccc(-c3cccs3)nn2)c(OC)c1,inconclusive: 41%
10,Cc1ccc(NC(=O)c2cc(S(=O)(=O)N3CCOCC3)cs2)cc1,active: 81.3%
11,Cc1c(C(=O)OCc2ccccc2)[nH]c2c1C(=O)CC(c1ccco1)C2 (centres undefined),inconclusive: 38.8%
12,O=C(Nc1ccccc1)OC1CCC2CC1CCC2OC(=O)Nc1ccccc1 (centres undefined),inconclusive: 34.2%
13,CC[C@@H](C)[C@@H](C(=O)N1CCN(C(=O)OC(C)(C)C)CC1)n1cc(CCCCNC(=O)OC(C)(C)C)nn1,inactive: 4.68%
14,COc1ccc([C@H]2CC(=O)C=C(c3ccccc3-c3ccccc3)C2)cc1,inconclusive: 47.5%
15,COc1ccc(C2OC3=C(Nc4cc(C)c(C)cc4N3)C2=O)cc1 (centres undefined),inconclusive: 43.5%
16,Cc1ccc2nc(NC(=O)c3ccco3)sc2c1,inconclusive: 45.5%
17,COC(=O)Cn1c(CCS(=O)(=O)c2ccc(C)cc2)nc2ccccc21,inconclusive: 33.4%
18,S=C(NCCc1ccccc1)N1CCN(C2CCCCC2)CC1,inactive: 1.99%
19,CCCCCOc1ccc(/C=C/C(=O)NCCc2nc3ccccc3[nH]2)cc1OC,inconclusive: 53%
20,Cc1csc(NC(=O)COc2ccc3c(c2)CCC3)n1,inconclusive: 61%
21,Cc1ccc(NC(=O)CCC(=O)NNC(=O)NC2CCCCC2)c(C)c1,inactive: 0.208%
22,O=C(CCc1c[nH]c2ccccc12)NCCc1ccc(Cl)cc1,active: 80.1%
23,CCc1cccc(NC(=O)C2CCCN(c3ncnc4c3nc3n4CCCCC3)C2)c1 (centres undefined),inconclusive: 38.8%

row,Structure (SMILES),activation
1,CCC1CN(C(=O)NCc2ccc(F)cc2)c2cc(C)ccc2O1 (centres undefined),inconclusive: 33%
2,CN(C(=O)Nc1ccc(Cl)cc1Cl)[C@H]1c2cc(Br)ccc2OC[C@H]1CO,inconclusive: 41.8%
3,CN1CCN(C2=CC3=CC(=C(C#N)C#N)CCC3CC2)CC1 (centres undefined),active: 184%
4,COc1cccc(NC(=O)C(NCC2CCCCC2)c2ccccc2)c1 (centres undefined),inconclusive: 54.1%
5,O=C(COc1ccccc1[N+](=O)[O-])Nc1ccc(NC(=O)c2cc3ccccc3o2)cc1,inactive: 21%
6,Cc1ccc(NC2CCCN(C(=O)c3ccnc(Cl)c3)C2)cc1C (centres undefined),inconclusive: 30.4%
7,C/C(=N\NC(=O)c1nnn(-c2nonc2N)c1CSc1ccccc1)c1ccco1,inconclusive: 31.5%
8,N#CC1CC(c2ccc([N+](=O)[O-])cc2)=NN1c1ccc([N+](=O)[O-])cc1 (centres undefined),inactive: 2.66%
9,c1ccc(-c2cc(N3CCCCC3)ncn2)cc1,inconclusive: 60.1%
10,CNC(=O)c1cc2ccc(OC)cc2oc1=O,inactive: 8.96%
11,CCOC(=O)CN1C(=O)C(C)(C)Oc2ccc(C(=O)Nc3ccccc3OC)cc21,inconclusive: 44.8%
12,CCCOc1ccc2c3c(c(=O)oc2c1OCCC)CCC3,inconclusive: 37.3%
13,COC(=O)CCC(=O)OC1(C)C(=O)C2=CN(C3CCCC3)C(c3ccc(OC)cc3)=CC2=C(Br)C1=O (centres undefined),inactive: -1.35%
14,C/C(=N\Nc1cc(C)nc(-c2ccccc2)n1)c1cccc([N+](=O)[O-])c1,inactive: 2.47%
15,CCCCn1c(SCC(=O)c2cc(OC)ccc2OC)nc2cc(S(N)(=O)=O)ccc21,inconclusive: 32.3%
16,CC(C)n1cnc2c(N(C)c3cccc(Cl)c3)nc(N(CCO)CCO)nc21,inconclusive: 30.2%
17,CN(C(=S)NC(=O)c1ccc(F)cc1)C1CCCCC1,inactive: 19.5%
18,Cc1cc(Cl)ccc1NC(=S)NCc1ccccc1Cl,inconclusive: 37.9%
19,Cc1ccc(N2N=C(c3ccc(Br)cc3)CCC2=O)cc1,inconclusive: 46.1%
20,O=C(COC(=O)c1ccc2ccccc2c1O)NCc1ccccc1,inconclusive: 41.9%
21,O=C(N/N=C/C1CC2CCC1C2)c1ccc2c(c1)OCO2 (centres undefined),inconclusive: 56.1%
22,O=C(Nc1nnc(S(=O)(=O)N2CCN(c3ccc(F)cc3)CC2)s1)c1ccco1,inactive: -0.34%
23,N#Cc1ccc(-c2csc(NC(=O)c3ccc(S(=O)(=O)N4CCc5ccccc5C4)cc3)n2)cc1,inactive: -2.77%

row,Structure (SMILES),activation
1,N/C(=N\OC(=O)c1ccc2ccccc2c1)c1ccncc1,inconclusive: 51.1%
2,COc1ccc(CNC(=O)CCCn2ccc3cc(S(=O)(=O)N4CCCC4)ccc32)cc1,inconclusive: 32.6%
3,CCN(CC)S(=O)(=O)c1cc(NC(=O)c2ccc(Br)s2)ccc1C,active: 83.2%
4,COc1cccc(NC(=O)CN2C(=O)CSc3ccc(S(=O)(=O)N4CCCCC4)cc32)c1,inconclusive: 52.6%
5,Cn1c2ccccc2c2cc(/C=N/NC(=O)c3cc(O)cc(O)c3)ccc21,inactive: 0.699%
6,CCN(CC)c1ccc(/C=N/N2C(=O)c3ccccc3C2=O)c(O)c1,inconclusive: 30.7%
7,Cc1ccc(NC(=O)c2csc3c2CCCC3)cc1,inconclusive: 65.4%
8,CC1=CC2=NC(=O)/C(=C\c3cccn3CCOc3ccccc3)C(=N)N2O1,inconclusive: 40.2%
9,C=C1[C@@H](OC(C)=O)CC[C@]2(C)[C@@H]1C[C@@H]1C[C@H](OC(C)=O)C(C)=C([C@@H](OC(C)=O)[C@@H]2OC(C)=O)C1(C)C,inconclusive: 67.8%
10,C=CCNC(=S)N1CCC(C(=O)c2ccc(Cl)cc2)CC1,inconclusive: 64.2%
11,Brc1ccc(-c2nn3c(-c4ccccn4)nnc3s2)o1,inconclusive: 36.5%
12,O=C(c1cc(Br)c(Br)s1)N1CCOCC1,inconclusive: 37.1%
13,O=S(=O)(c1ccc(Br)cc1)N1CCn2c(nc3ccccc32)C1,inconclusive: 36.4%
14,CC1CC(C)CN(C(=O)c2ccc(S(=O)(=O)N3CCCCC3)cc2)C1 (centres undefined),inconclusive: 45.7%
15,Cc1[nH]c(=O)c(C(=O)/C=C/c2ccccc2F)c2c1CCCC2,inactive: 0.47%
16,Cc1ccc(-c2cc(C(=O)NCc3ccc4c(c3)OCO4)[nH]n2)c(O)c1C,inconclusive: 35.8%
17,CC(C)Cn1c(SCC(=O)N2CCCc3ccccc32)nc2ccccc2c1=O,inconclusive: 44.8%
18,O=C(O)C1Cc2[nH]cnc2C(c2cccc([N+](=O)[O-])c2)N1 (centres undefined),inactive: -1.25%
19,Cc1ccc(CNC(=O)C2CC(c3cccc(F)c3)=NO2)cc1 (centres undefined),inconclusive: 38.2%
20,COc1ccc(OC)c(-c2cc(C(=O)NCc3cccs3)no2)c1,inconclusive: 50.2%

# An excerpt from above in order of molar mass, ascending:
row,Structure (SMILES),activation
15,Cc1[nH]c(=O)c(C(=O)/C=C/c2ccccc2F)c2c1CCCC2,inactive: 0.47%
19,Cc1ccc(CNC(=O)C2CC(c3cccc(F)c3)=NO2)cc1 (centres undefined),inconclusive: 38.2%
16,Cc1ccc(-c2cc(C(=O)NCc3ccc4c(c3)OCO4)[nH]n2)c(O)c1C,inconclusive: 35.8%
4,COc1cccc(NC(=O)CN2C(=O)CSc3ccc(S(=O)(=O)N4CCCCC4)cc32)c1,inconclusive: 52.6%
